Experimental data taken from PMC9005958.
Tags and fusion partners may be left off the protein sequences shown.

Test system: T1, GST-rCtrA (Ehrlichia chaffeensis)
T1 sequence (looked up): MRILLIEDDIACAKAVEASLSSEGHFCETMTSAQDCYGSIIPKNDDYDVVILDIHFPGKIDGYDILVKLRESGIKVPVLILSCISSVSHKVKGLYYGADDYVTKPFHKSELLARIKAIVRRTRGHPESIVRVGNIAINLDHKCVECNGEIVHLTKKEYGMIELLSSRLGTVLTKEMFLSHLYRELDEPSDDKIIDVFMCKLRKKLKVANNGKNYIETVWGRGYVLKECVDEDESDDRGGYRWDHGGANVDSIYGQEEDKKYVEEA
Test: EMSA
Conditions: 2.5 uM protein, 50 ng DNA; EMSA: 10 mM Tris-HCl pH 7.5, 1 mM DTT, 20 ul, on ice 30 min; 8% native PAGE in 1x TBE, ethidium bromide stain; recombinant protein; residues 1-265; protein details: N-terminal GST (pET-41a(+)); probe letters rebuilt from the primers and the genome

Sequence	binding result
GAACGTCTGGTTGGTCTGCTCAATGGTATGAGATGGTAGCAGAAGAAAATTATAAAATATGTCGTCCACGTCAGTTGTATACTGGTAATATTGCAGAATGTTAACATAATTTTGAATTATCATTGCTTATTGTTTTAATATTATTGATAATTATGCGCATATTAATTGTGGATTTGTATATGTATATCTTGTTAACCATAAAAATTATTTAGAAGTGTATATAATTAGAAATATGTGTTAATATATGAGGGTAATCTTAGGATATAAACATAGATATAAGTTAAAAATGAAGTTATATACTGTAGTTGTAATATTACGTTAAGTAAAAATTTTTTATGCTTAACTATGGATAATTATCTTAAAGTGTTGATGTCCTATGAGTTTACTCGCA (double strand) [gshA promoter]	binds
TCTTATAACCCTTACTTTATTGAATGAGAATAACAAAATTCTTAAGATATCGAAATATAAAAGATCATGACGTAAACAACATACTAGTTCATATGCTATCTTATATTAAGCATTCACAAAAAAGACCTTGATTCAGCAAACTAGCATAAAAAACTTGGAAGATATTAAACACAACATTTAAAACTTAAAGACATACTTATATTAAATGAAGAATTAATCACATATTACAATACAAAAGTACATTTTAAACATGTATTAATTATATGTCATACGTATGTAATTCACACATTTATTTATAGTCCTACAGTAATGTAAAATTACTTATTGTAAAAAACAGCGTATATAAAATTGAAGTAGATGATTAATCACGTAACTTGCTATCCTTTAATCTTACATAACTAATAACTTGTTTTACTTTTTTGACTTTTTGCGCTATTGATACAACCTTATCCAACTCCTC (double strand) [gshB promoter]	binds
